{"source": "paper PMC4763223", "key": {"[1]": {"system": "GST-Kat1 C402A/H405A (Kluyveromyces lactis)", "test": "EMSA", "settings": "5 mM Mg2+, bound normally; EMSA: 50 mM Tris-HCl (pH not given), 0.5 mM EDTA, 1 mM DTT, 100 ug/ml BSA, 7 ng/ul ssDNA, 5 mM MgCl2, 60 min on ice (4 C), ~1.4 nM probe; recombinant protein; protein details: N-terminal GST; label: 32P 5' end; letters put together from the description"}, "[2]": {"system": "GST-Kat1 C130A/C133A (Kluyveromyces lactis)", "test": "EMSA", "settings": "5 mM Mg2+, 5-40 nM; EMSA: 50 mM Tris-HCl (pH not given), 0.5 mM EDTA, 1 mM DTT, 100 ug/ml BSA, 7 ng/ul ssDNA, 5 mM MgCl2, 60 min on ice (4 C), ~1.4 nM probe; recombinant protein; protein details: N-terminal GST; label: 32P 5' end; letters put together from the description"}}, "note": "For at least one entry, the source does not settle the construct or the ends of the probe. For some assays here: A negative result means that nothing was seen under these conditions."}
{"sequence": "GACATGGAAAGGAAGACATGGTTGGTCTGATTTCATTAACGTTTCAGGTATACATCAAAATTCAGTGAATTTAATTCTGTCGTTTGAAACCAGTTTAGGTGAAATTGGATTAGGTGGTGAATTGATACATAGTAAATAATTACTGGTCCATAATTTTTGTGAATATTTATGCTCTTTATACTATGTAGTTTTTATCCTGAATATTAACGATTGCTCACCTAAATTTCTCGTTTAAAATCCCTATAATGTGAATGGTTTTAGATGATTCATGGTGTTTTTATTAGTGACCGAAATGTTTAGTTTTGGATACTTGATGATAGAATAAAGAGAAGTGTTATGTAAAAAGTGTTAATTCATGTTAAATTCACTACCTTCTTGAGATTCAATTCACACCATTTGATGGTGAATATATCCATCTTAATCAGACGTATACAGAATTCACCTTCAGATGTGTAAGAGTTTTATGTATTCCAATATGTCATTTGTCAATTTGTCTGCATTTCAAACAAAGGAAAAATAAACTTAAGGACATATATCTGAAAATATACCACATAGATACGTCCCTGTTTTAGATACAGC (double strand) [MATa1-MATa2 intergenic probe (577 bp; 579 bp in Fig S5)]", "values": [{"measurement": "binding result", "setting": "[1]", "value": "binds"}, {"measurement": "binding result", "setting": "[2]", "value": "no binding"}]}
